Experimental data: PubChem BioAssay AID504774 (Drosophila RNAi Screening Center, 2011)

Aim: 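Fly genes whose loss alters survival after alkylation damage to DNA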 (primary screen)
Cells: Drosophila Kc167 cells
Reagent: long dsRNA against Drosophila genes, about 0.25 µg dsRNA per well
Timing: about 6 days: 3 days knock-down, then 3 days with or without MMS
Challenge: methyl methanesulphonate 0.004% (w/v) for 3 days after knock-down
Measurement: 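Viability in wells given MMS, read as ATP luminescence, normalised by quantiles plate by plate and averaged across replicates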
Reading the numbers: mean viability with MMS: higher = more surviving cells after MMS
The deposit covers about 23,000 reagents; this is a random part of those that have a named target and a result. 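Values are quantile-normalised luminescence on an arbitrary scale; higher means more cells surviving MMS.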 Names joined by + are all predicted targets of the reagent. Further read-outs or replicates are left out here.

| predicted target | dsRNA | mean viability with MMS |
| --- | --- | --- |
| X11L | DRSC19958 | 3.84e6 |
| X11L | DRSC19959 | 3.60e6 |
| Gem3 (Gemin 3) | DRSC11144 | 3.50e6 |
| Rok (Rho kinase) | DRSC20277 | 3.72e6 |
| Rok (Rho kinase) | DRSC23348 | 3.12e6 |
| CG8249 | DRSC07125 | 3.55e6 |
| lolal (lola like) | DRSC06948 | 3.55e6 |
| srl (spargel) | DRSC12340 | 3.58e6 |
| toy (twin of eyeless) | DRSC17222 | 3.45e6 |
| CG14174 | DRSC10175 | 3.71e6 |
| CG10300 | DRSC14225 | 3.60e6 |
| ppk25 (pickpocket 25) | DRSC04973 | 3.65e6 |
| CG7903 | DRSC16338 | 3.53e6 |
| Pp1-Y2 (Protein phosphatase 1, Y-linked 2) | DRSC21608 | 3.73e6 |
| peb (pebbled) | DRSC18817 | 3.25e6 |
| peb (pebbled) | DRSC23057 | 3.67e6 |
| CG1812 | DRSC20557 | 3.58e6 |
| Tmtc4 (Transmembrane O-mannosyltransferase targeting cadherins 4) | DRSC15702 | 3.47e6 |
| sqh (spaghetti squash) | DRSC18837 | 3.36e6 |
| Mur18B (Mucin related 18B) | DRSC20063 | 3.55e6 |
| Tsp42Eh (Tetraspanin 42Eh) | DRSC06190 | 3.61e6 |
| NiPp1 (Nuclear inhibitor of Protein phosphatase 1) | DRSC07307 | 3.42e6 |
| CG17108 | DRSC02576 | 3.60e6 |
| CG17108 | DRSC22214 | 3.48e6 |
| yellow-c + CIAPIN1 | DRSC01898 | 3.64e6 |
| CG33251 (retired record) + CG9915 | DRSC20217 | 3.56e6 |
| Wdr33 (WD repeat domain 33) | DRSC12162 | 3.46e6 |
| CG4194 | DRSC18520 | 3.61e6 |
| CG6763 | DRSC16110 | 3.68e6 |
| CG14562 | DRSC11723 | 3.64e6 |
| CG13405 | DRSC08310 | 3.67e6 |
| Fs (Follistatin) | DRSC06258 | 3.61e6 |
| Fs (Follistatin) | DRSC06259 | 3.63e6 |
| wus (wurst) | DRSC20278 | 3.88e6 |
| Syn2 (Syntrophin-like 2) | DRSC06902 | 3.69e6 |
| CG32281 | DRSC08236 | 3.57e6 |
| hyd (hyperplastic discs) | DRSC16971 | 3.31e6 |
| CG31068 | DRSC13820 | 3.61e6 |
| Prx6a (Peroxiredoxin 6a) | DRSC00565 | 3.76e6 |
| vkg (viking) | DRSC03632 | 3.50e6 |
| fu (fused) | DRSC20333 | 3.26e6 |
| Cib2 (Calcium and integrin binding family member 2) | DRSC04535 | 3.61e6 |
| Stip1 (Stress induced phosphoprotein 1) | DRSC00756 | 3.77e6 |
| CG12078 | DRSC08242 | 3.58e6 |
| CG14763 | DRSC06497 | 3.54e6 |
| dmt (dalmatian) | DRSC16932 | 3.16e6 |
| Tsp42Ee (Tetraspanin 42Ee) | DRSC05947 | 3.61e6 |
| Hmgcr (HMG Coenzyme A reductase) | DRSC16704 | 3.40e6 |
| Tbc1d22 (TBC1 domain family member 22) | DRSC15867 | 3.49e6 |
| eIF1A (eukaryotic translation initiation factor 1A) | DRSC16937 | 3.26e6 |
| CG7639 | DRSC07026 | 3.54e6 |
| Oatp33Eb (Organic anion transporting polypeptide 33Eb) | DRSC02955 | 3.65e6 |
| Jheh2 (Juvenile hormone epoxide hydrolase 2) | DRSC06530 | 3.48e6 |
| CG9400 | DRSC20182 | 3.61e6 |
| nwk (nervous wreck) | DRSC10442 | 3.38e6 |
| CG10341 | DRSC02040 | 3.52e6 |
| obst-F (obstructor-F) | DRSC10805 | 3.34e6 |
| CG14072 | DRSC02375 | 3.79e6 |
| CG32023 | DRSC08946 | 3.59e6 |
| CG15465 | DRSC18048 | 3.38e6 |
| CG30385 | DRSC06031 | 3.67e6 |
| CG12010 | DRSC08218 | 3.85e6 |
| aspr (asperous) | DRSC20689 | 3.51e6 |
| aspr (asperous) | DRSC20690 | 3.52e6 |
| RpS5a (Ribosomal protein S5a) | DRSC20282 | 3.30e6 |
| CG4324 | DRSC04462 | 3.50e6 |
| PNPase (Polynucleotide phosphorylase) | DRSC14304 | 3.57e6 |
| Gpat4 (Glycerol-3-phosphate acyltransferase 4) | DRSC04345 | 3.64e6 |

Part of the list above, set out differently:
{"predicted target": "srl (spargel)", "dsRNA": "DRSC12340", "mean viability with MMS": 3.58e6}
{"predicted target": "toy (twin of eyeless)", "dsRNA": "DRSC17222", "mean viability with MMS": 3.45e6}
{"predicted target": "CG14174", "dsRNA": "DRSC10175", "mean viability with MMS": 3.71e6}
{"predicted target": "CG10300", "dsRNA": "DRSC14225", "mean viability with MMS": 3.60e6}
{"predicted target": "ppk25 (pickpocket 25)", "dsRNA": "DRSC04973", "mean viability with MMS": 3.65e6}
{"predicted target": "CG7903", "dsRNA": "DRSC16338", "mean viability with MMS": 3.53e6}
{"predicted target": "Pp1-Y2 (Protein phosphatase 1, Y-linked 2)", "dsRNA": "DRSC21608", "mean viability with MMS": 3.73e6}
